This is one part of the list.

Amino acid sequences for entries named in this document (tags omitted). A change or cut given only in a name is not applied to a line headed by its entry.
UniProt Q9BQE4, whole entry, looked up: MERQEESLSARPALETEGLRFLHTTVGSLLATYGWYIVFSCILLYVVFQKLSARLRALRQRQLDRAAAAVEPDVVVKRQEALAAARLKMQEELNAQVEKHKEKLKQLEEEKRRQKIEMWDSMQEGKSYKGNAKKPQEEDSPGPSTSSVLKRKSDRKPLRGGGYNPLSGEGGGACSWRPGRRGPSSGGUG
UniProt Q8WVM8, whole entry, looked up: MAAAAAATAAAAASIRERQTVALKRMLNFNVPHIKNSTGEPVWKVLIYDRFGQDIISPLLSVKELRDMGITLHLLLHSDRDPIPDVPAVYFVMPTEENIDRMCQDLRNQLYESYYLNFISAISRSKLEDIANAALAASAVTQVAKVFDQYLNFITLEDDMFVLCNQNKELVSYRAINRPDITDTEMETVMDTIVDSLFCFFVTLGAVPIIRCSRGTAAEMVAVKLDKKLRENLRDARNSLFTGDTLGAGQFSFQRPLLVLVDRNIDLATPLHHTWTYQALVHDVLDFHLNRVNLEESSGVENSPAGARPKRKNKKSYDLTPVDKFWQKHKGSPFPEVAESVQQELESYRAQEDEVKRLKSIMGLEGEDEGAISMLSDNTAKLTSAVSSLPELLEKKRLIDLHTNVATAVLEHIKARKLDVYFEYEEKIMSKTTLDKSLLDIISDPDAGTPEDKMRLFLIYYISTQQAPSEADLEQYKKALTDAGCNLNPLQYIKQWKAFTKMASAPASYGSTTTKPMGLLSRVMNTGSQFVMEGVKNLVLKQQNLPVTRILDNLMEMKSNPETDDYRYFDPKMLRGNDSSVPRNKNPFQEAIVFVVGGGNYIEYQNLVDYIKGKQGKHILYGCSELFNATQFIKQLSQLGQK
UniProt O94855: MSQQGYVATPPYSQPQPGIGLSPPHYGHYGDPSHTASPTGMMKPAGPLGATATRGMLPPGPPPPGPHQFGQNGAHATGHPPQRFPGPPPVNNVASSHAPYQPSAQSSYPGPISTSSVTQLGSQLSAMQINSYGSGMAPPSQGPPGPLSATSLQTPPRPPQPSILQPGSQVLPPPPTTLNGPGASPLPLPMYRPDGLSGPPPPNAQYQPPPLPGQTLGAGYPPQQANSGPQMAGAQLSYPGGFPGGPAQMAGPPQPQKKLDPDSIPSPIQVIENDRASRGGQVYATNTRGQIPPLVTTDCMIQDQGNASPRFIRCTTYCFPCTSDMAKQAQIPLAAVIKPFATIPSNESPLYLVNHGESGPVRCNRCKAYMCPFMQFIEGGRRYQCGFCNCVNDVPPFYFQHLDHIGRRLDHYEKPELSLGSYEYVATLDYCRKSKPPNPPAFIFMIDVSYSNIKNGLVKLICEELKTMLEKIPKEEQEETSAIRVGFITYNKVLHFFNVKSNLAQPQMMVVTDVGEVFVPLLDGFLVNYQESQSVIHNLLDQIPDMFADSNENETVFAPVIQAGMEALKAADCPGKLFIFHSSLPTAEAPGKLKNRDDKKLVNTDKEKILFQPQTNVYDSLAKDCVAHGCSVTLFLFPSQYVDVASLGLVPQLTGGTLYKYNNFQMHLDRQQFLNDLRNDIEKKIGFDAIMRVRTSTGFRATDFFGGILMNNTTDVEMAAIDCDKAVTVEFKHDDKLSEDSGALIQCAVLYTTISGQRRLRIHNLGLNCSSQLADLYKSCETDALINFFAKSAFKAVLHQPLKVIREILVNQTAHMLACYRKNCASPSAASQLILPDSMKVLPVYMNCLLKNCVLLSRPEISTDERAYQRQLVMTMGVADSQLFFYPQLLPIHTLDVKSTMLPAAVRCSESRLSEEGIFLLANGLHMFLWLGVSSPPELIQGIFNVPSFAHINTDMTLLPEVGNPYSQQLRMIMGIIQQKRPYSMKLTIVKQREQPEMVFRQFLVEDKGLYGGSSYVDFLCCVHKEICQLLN
UniProt P61619, whole entry, looked up: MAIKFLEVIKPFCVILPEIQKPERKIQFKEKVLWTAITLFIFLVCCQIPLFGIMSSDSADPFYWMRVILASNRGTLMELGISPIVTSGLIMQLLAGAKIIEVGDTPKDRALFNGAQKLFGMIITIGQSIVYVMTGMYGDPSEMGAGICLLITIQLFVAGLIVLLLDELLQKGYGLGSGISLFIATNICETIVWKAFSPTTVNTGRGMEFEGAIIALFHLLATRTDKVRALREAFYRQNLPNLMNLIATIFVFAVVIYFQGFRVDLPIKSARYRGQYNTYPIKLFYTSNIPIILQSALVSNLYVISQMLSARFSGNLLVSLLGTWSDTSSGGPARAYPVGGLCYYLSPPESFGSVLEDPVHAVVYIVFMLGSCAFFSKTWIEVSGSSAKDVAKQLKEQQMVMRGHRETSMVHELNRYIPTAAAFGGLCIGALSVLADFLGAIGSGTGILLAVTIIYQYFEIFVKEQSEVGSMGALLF
UniProt Q9UGP8: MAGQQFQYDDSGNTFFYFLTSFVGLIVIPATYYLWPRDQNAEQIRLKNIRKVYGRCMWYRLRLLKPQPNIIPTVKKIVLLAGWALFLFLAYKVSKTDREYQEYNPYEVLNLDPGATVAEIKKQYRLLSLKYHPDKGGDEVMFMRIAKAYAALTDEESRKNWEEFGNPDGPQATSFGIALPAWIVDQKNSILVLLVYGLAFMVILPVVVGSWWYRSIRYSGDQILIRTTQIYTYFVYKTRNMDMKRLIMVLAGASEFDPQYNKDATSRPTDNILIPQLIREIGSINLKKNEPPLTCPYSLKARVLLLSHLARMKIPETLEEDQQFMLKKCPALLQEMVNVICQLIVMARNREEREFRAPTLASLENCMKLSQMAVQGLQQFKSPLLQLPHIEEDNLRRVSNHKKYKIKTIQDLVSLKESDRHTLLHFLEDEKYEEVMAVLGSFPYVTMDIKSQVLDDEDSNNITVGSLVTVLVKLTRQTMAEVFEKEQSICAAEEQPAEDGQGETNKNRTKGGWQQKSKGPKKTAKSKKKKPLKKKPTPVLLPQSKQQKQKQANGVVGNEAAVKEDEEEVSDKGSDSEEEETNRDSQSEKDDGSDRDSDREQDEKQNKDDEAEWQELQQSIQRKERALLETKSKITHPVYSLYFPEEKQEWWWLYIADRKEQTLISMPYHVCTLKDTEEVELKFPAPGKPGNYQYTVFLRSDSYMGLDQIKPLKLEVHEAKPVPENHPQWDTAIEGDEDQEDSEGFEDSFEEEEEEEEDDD
UniProt Q96ER3: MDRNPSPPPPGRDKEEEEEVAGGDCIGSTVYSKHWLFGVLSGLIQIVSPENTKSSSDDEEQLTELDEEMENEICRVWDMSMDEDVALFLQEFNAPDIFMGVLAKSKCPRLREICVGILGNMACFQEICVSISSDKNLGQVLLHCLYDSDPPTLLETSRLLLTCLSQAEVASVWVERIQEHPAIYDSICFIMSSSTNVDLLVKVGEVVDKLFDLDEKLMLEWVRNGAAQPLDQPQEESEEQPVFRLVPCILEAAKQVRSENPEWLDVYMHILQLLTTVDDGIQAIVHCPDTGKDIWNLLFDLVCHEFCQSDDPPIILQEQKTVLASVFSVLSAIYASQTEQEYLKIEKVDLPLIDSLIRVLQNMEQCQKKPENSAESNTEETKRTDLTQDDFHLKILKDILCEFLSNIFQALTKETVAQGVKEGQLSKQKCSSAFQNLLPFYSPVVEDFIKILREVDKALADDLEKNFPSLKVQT
UniProt Q86SQ7: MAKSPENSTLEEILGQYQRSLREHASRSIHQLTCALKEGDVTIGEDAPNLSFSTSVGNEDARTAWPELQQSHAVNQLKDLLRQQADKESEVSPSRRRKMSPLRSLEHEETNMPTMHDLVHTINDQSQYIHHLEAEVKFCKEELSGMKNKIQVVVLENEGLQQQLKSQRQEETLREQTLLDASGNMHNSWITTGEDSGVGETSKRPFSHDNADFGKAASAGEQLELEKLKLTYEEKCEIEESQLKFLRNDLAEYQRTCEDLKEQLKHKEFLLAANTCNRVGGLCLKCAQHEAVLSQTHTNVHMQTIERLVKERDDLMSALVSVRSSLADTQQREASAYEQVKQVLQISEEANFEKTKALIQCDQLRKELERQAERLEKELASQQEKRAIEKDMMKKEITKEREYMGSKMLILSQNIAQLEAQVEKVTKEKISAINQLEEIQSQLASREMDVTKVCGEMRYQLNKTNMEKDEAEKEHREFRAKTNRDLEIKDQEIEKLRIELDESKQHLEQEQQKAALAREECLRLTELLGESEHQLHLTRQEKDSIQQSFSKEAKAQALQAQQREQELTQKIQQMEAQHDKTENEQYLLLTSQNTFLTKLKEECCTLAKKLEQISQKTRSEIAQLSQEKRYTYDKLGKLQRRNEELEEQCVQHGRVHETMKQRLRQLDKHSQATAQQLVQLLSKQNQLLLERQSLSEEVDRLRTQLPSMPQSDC
UniProt O14828: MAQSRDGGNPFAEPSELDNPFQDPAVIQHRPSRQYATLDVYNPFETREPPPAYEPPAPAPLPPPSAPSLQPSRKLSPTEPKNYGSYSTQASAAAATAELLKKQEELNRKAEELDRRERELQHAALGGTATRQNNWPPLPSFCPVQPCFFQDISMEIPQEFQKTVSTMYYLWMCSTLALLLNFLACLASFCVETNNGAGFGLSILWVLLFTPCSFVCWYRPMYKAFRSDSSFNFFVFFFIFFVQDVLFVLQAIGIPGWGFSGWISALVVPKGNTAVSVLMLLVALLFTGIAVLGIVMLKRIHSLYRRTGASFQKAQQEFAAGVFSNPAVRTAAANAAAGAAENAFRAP
UniProt O60613, whole entry, looked up: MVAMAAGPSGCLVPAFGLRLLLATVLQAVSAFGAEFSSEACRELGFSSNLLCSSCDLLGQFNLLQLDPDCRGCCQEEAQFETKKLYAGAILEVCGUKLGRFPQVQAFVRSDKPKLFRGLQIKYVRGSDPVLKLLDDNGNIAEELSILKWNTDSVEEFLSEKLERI
UniProt Q6UVJ0: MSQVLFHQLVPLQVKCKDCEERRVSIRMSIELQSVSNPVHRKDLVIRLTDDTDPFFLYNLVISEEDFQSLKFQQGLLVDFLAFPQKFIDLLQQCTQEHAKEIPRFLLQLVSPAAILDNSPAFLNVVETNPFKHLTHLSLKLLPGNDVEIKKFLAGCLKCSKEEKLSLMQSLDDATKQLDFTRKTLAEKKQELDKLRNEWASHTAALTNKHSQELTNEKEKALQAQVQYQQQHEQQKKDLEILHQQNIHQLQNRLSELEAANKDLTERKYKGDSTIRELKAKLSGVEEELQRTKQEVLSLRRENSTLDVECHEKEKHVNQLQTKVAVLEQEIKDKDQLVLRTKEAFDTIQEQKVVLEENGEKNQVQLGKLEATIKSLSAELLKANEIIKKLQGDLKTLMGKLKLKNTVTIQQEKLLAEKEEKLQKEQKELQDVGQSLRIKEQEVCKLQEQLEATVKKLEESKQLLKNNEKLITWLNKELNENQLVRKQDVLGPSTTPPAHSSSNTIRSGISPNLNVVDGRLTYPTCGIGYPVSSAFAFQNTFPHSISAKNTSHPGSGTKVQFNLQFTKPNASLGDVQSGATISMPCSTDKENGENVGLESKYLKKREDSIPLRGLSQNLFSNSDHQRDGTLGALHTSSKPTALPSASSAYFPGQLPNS
UniProt Q8WU76: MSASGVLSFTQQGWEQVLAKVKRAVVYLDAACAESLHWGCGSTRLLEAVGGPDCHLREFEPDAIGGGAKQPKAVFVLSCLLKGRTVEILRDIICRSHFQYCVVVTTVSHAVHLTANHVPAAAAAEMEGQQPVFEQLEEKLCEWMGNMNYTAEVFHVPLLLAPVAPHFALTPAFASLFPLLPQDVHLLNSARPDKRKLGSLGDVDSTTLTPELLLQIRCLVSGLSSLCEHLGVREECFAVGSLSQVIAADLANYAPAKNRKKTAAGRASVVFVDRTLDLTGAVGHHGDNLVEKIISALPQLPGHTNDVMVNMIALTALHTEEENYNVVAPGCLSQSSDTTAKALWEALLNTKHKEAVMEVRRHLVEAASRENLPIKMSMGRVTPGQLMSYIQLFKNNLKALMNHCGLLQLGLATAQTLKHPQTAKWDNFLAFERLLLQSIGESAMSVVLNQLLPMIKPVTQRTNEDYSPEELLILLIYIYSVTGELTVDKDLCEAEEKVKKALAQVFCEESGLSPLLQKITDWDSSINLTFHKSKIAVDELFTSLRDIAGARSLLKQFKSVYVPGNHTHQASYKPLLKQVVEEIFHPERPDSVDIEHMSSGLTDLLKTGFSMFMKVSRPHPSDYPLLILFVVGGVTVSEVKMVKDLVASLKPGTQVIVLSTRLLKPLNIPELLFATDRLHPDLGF
UniProt Q9NVA2: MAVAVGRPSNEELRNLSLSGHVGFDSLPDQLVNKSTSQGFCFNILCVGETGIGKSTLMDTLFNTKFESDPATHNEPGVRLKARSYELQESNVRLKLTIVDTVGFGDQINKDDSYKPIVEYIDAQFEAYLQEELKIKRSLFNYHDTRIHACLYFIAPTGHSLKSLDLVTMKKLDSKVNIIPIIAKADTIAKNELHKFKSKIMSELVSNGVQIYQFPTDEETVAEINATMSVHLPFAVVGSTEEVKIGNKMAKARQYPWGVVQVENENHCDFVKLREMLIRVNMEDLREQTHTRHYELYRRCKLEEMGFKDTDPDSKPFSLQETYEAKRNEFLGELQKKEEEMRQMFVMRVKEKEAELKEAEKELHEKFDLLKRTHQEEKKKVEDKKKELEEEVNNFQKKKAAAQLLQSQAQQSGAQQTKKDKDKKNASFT

Compound in this experiment: CC1=C(C(CC(=O)N1)C2=CC=C(C=C2)C(F)(F)F)C(=O)NC3=C(C=C4C(=C3)C=NN4)F
Nature of the experiment: log2 fold change, soluble protein after heating vs DMSO (PISA); higher = thermal stabilisation; K562 lysate, 10 uM; active = over 0.2 and 3.5 SD of the protein, either way, in both replicates (recomputed). The procedure, abridged:
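The values are log-two fold changes in thermal stability compared with solvent controls and come from duplicates. They were obtained by TMTpro 16plex LC-MS/MS, with channel sums equalised, on the supernatant after 21,000xg for 90 min. That supernatant came from crude K562 extract at 1 mg/mL protein treated with 10 μM compound for 30 min, heated for 3 min across 48°C-58°C, pooled and brought to 0.5% NP-40 at 4°C.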
As for SCRIB (UniProt Q14160), the log2 fold change is inactive: -0.003. With SEC23A (UniProt Q15436), the log2 fold change is inactive: 0.005. On to SEPTIN9 (UniProt Q9UHD8), for which the log2 fold change is inactive: -0.005.

For the target SEMA4B (UniProt Q9NPR2), the log2 fold change was inactive: 0.093. Consider SDF4 (UniProt Q9BRK5), for which the log2 fold change is inactive: 0.028.

Regarding SELENOS (UniProt Q9BQE4), the log2 fold change is inactive: 0.021.

As for SCFD1 (UniProt Q8WVM8), the log2 fold change was inactive: 0.019.

Turning to SEC24D isoform 2 (UniProt O94855), the log2 fold change was inactive: -0.009. SELENBP1 isoform 4 (UniProt Q13228): the log2 fold change was inactive: -0.003.

On to SEC61A1 (UniProt P61619), for which the log2 fold change was inactive: 0.025. As to SEC24C (UniProt P53992), the log2 fold change was inactive: -0.004. On to SAP30BP (UniProt Q9UHR5), for which the log2 fold change was inactive: -0.013. As to SCRN3 (UniProt Q0VDG4), the log2 fold change is inactive: 0.016. In the case of SDSL (UniProt Q96GA7), the log2 fold change was inactive: -0.005. SEC63 (UniProt Q9UGP8): the log2 fold change was inactive: -0.012. For SARG (UniProt Q9BW04), the log2 fold change is inactive: -0.012.

On to SAAL1 (UniProt Q96ER3), for which the log2 fold change is inactive: -0.003.

Turning to SAR1B (UniProt Q9Y6B6), the log2 fold change was inactive: 0.154.

In the case of SAMSN1 (UniProt Q9NSI8), the log2 fold change is inactive: -0.028. Under SDCCAG8 (UniProt Q86SQ7) stands inactive: 0.088; under SCYL1 (UniProt Q96KG9), inactive: 0.033. Consider SDAD1 (UniProt Q9NVU7), for which the log2 fold change is inactive: 0.02. As for SEPTIN2 isoform 2 (UniProt Q15019), the log2 fold change is inactive: -0.041. For SCAMP3 isoform 2 (UniProt O14828), the log2 fold change is inactive: -0.049.

Turning to SELENOF (UniProt O60613), the log2 fold change was inactive: -0.033. As for SASS6 (UniProt Q6UVJ0), the figure is inactive: 0.024; as for SCFD2 (UniProt Q8WU76), inactive: 0.02. Under SEPTIN11 isoform 2 (UniProt Q9NVA2) stands inactive: 0.001; under SCLT1 (UniProt Q96NL6), inactive: 0; under SCARB1 isoform 2 (UniProt Q8WTV0), inactive: -0.009.

Take SENP5 (UniProt Q96HI0): the log2 fold change is inactive: -0.056. Under SDHB (UniProt P21912) stands inactive: -0.001. As for SCML2 (UniProt Q9UQR0), the figure is inactive: 0.011.

The values are drawn from the supplement of paper PMC10849652.
